Test results reported in PubChem BioAssay AID651660 (Broad Institute, 2012).
Values joined by “and” are separate entries in the source; they are usually repeats but may differ in a detail not shown here. Equal values may be shown once. Hit rate of the full screen: of about 1,900 compounds, about 15 (0.8%) were called active.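 Rule for the calls: active = every replicate shows at least 50% inhibition; inconclusive = mean inhibition at least 50% but some replicate below; inactive = the rest.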 The list shows a part of the results.

Chains of the proteins cited; added tags and fusions are not shown. Lines headed by an entry give the natural chain unless they say otherwise; changes in a name come on top.
UniProt P43351: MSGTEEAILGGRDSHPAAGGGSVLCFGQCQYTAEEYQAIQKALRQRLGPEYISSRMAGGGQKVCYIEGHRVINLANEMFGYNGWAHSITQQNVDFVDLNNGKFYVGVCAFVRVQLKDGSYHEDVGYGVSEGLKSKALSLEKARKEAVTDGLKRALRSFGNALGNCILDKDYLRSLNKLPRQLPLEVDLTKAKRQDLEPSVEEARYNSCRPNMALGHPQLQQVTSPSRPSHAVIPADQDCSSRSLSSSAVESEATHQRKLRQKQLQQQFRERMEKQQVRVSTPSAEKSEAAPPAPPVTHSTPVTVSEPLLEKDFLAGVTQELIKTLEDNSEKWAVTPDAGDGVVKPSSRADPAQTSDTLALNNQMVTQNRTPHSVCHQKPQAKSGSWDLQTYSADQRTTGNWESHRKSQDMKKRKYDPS

Biological target: DNA repair protein RAD52 homolog (Homo sapiens) (UniProt P43351)
Experiment: RAD52 ssDNA annealing inhibitors, primary screen, biochemical, FRET, single point (AID 651660);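 note: 0% = median of neutral control wells and 100% = median of positive control wells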
Settings: Recombinant RAD52 ssDNA annealing, FRET fluorescence, 30 min; at 18.7 µM; hits give high values

inhibition, inactive:
COc1ccc(N2C(=O)C3C(C2=O)C(C(=O)c2ccccc2)N2CCCC32)cc1 (stereo unspecified) -88.5%
COc1cccc(C2CCCN2Cc2nc(CCC(C)C)no2)c1 (stereo unspecified) -14.7%
Nc1nc(Cl)nc2c1ncn2[C@@H]1O[C@H](CO)[C@@H](O)[C@H]1O -0.877%
CCOC(=O)c1oc2cc(O)cc(C)c2c(=O)c1-c1cscn1 5.2%
O=C1N[C@@H](Cc2cnc[nH]2)C(=O)N2CCC[C@@H]12 -0.162%
C[C@@H]1C[C@H]2[C@@H]3CCC4=CC(=O)C=C[C@]4(C)[C@@]3(F)[C@@H](O)C[C@]2(C)[C@@]1(O)C(=O)COP(=O)(O)O -4.25%
Cc1ccc(CSCC(=O)NCCCN2CCOCC2)cc1 5.56%
COc1ccc(C(=O)NC(=O)NC2(C(Cl)(Cl)Cl)OCCO2)cc1 1.4%
CCn1c(=N)c(C(=O)NC)cc2c(=O)n3cccc(C)c3nc21 40.7%
O=[N+]([O-])c1ccc2cn[nH]c2c1 -3.19%
CC(=O)C1=C(Nc2ccc(C)cc2)CC(C)(O)C(C(C)=O)C1c1ccco1 (stereo unspecified) -76.2%
CC(C)C12CN3CC(C(C)C)(CN(C1)C3c1ccccc1)C2O (stereo unspecified) 0.63%
OCCN(CCO)c1nc(N2CCCCC2)c2nc(N(CCO)CCO)nc(N3CCCCC3)c2n1 -284%
COC(=O)[C@H]1[C@H]2C[C@@H]3c4[nH]c5cc(OC)ccc5c4CCN3C[C@H]2C[C@@H](OC(=O)c2ccc(N)cc2)[C@@H]1OC -47.1%
CC(C)CC(NC(=O)CNC(=O)C1O[C@@H]2OC(C)(C)O[C@@H]2[C@H]2OC(C)(C)O[C@@H]12)C(=O)O (stereo partly specified) -7%
Cc1c(Cc2ccccc2)c(=O)oc2c(CN(C)C)c(O)c(Cl)cc12 -33.1%
COc1ccc(-c2cc(=O)oc3cc(OC(C)C(=O)O)ccc23)cc1 (stereo unspecified) -15%
CSCC[C@H](NC(=O)NC1CCCC1)C(=O)O -5.4%
CC(=O)C1=C(NC(=O)c2ccc(C(F)(F)F)cc2)C[C@@H]2[C@H]1C2(C)C 4.2%
COc1ccc(CC(=O)Nc2cccc(C(=O)Nc3ccccc3C(=O)O)c2)cc1OC -17%
CC(C)(C)N1NC2(CCCCC2)NC1=S 9.14%
O=C(O)C1CSC(c2ccco2)N1 (stereo unspecified) -11.6%
CCN1C(=O)C(CC(=O)Nc2ccc(F)cc2)N(Cc2ccc3c(c2)OCO3)C1=S (stereo unspecified) 8.77%
COc1ccccc1/C=C/C(=O)c1c2c(c(C)[nH]c1=O)CCCC2 -7.85%
CN(C)CCOc1ccc(Cl)cc1C(C)(C)C 7.97%
COc1cccc(/C=C/C(=O)c2c(O)cc(C)oc2=O)c1O -38.5%
CC(=O)c1c(C)[nH]c(C(=O)OCc2ccccc2)c1C 1.84%
CCc1cc(=O)oc2cc(C)c(CN3CCCC(C)C3)c(O)c12 (stereo unspecified) -71.9%
COC(=O)CCC(=O)CN -5.45%
COc1ccc2cc(-c3nc4ccccc4n3C)c(=O)oc2c1 -12%
CC1(C)NC(C(=O)O)Cc2c1[nH]c1ccccc21 (stereo unspecified) -5.7%
O=C(Nc1ccccc1)OCC1CCCN2CCCCC12 (stereo unspecified) 2.17%
CC(C)=CCC/C(C)=C/CC/C(C)=N/O -2.54%
COc1cc(C2C(C(C)=O)=C(O)C(=O)N2c2ccc(C)cc2)ccc1O (stereo unspecified) -13.3%
CC(C)NC(=O)C1(c2ccccc2)CCOCC1 -5.21%
CC(C)OC(=O)C(C)(C)Oc1ccc(C(=O)c2ccc(Cl)cc2)cc1 -5.56%
COC(=O)C1[C@H]2C(=O)N(Cc3cccs3)C[C@]23C=C[C@H]1O3 (stereo partly specified) 4.54%
CN1CCCN(C(c2ccccc2)c2ccc(Cl)cc2)CC1 (stereo unspecified) 20.1%
Nc1ccc(N)c(C(=O)O)c1 5.84%
CCOc1ccc2nc(S(N)(=O)=O)sc2c1 -9.33%
O=C(O)c1ccccc1O -0.256%
Cc1cc(/C=N/O)c(C)n1-c1ccc(Br)cc1 -14.7%
CCNCCC(CCC(C)C)c1ccc2c(c1)OCO2 (stereo unspecified) 5.63%
C/C(NC(=O)c1cccs1)=C1\C(=O)C[C@@H]2[C@H]1C2(C)C 1.79%
O=P(c1ccccc1)(c1ccccc1)c1nc(-c2ccc(Cl)cc2)oc1N1CCOCC1 7.3%
N#C/C(=C\c1ccc(O)c(O)c1)C(=O)NCCCc1ccccc1 -77.9%
CCOC(=O)C1CCCN(Cc2nc(Cc3cccc(F)c3)no2)C1 (stereo unspecified) -0.447%
COc1ccc(-c2[nH]ncc2CN(CCO)Cc2cccs2)c(F)c1 -3.67%
CCOc1ccc(C(=O)NCC2(c3ccccc3)CCOCC2)cc1 -5.73%
O=C(Nc1ccc(Oc2c(F)c(F)c(F)c(F)c2F)cc1)OC1CCN2Cc3ccccc3N=C12 (stereo unspecified) -1.63%
C/C=C(/C(=C/C)c1ccc(O)cc1)c1ccc(O)cc1 4.54%
COc1ccc(-c2cc3cc(OC)c(OC)cc3c(C)n2)cc1 -3.4%
Cc1ncc([N+](=O)[O-])n1CC(C)O (stereo unspecified) 7.1%
COc1ccc2cc([C@H](C)C(=O)O)ccc2c1 -8.61%
O=[N+]([O-])c1cc(/C=N/n2cnnc2)ccc1N1CCCC1 -0.23%
CCN(CC)c1ccc(C2=NNC(=O)CC2C)cc1[N+](=O)[O-] (stereo unspecified) -0.17%
C[C@@H]1C[C@H](Nc2ccccc2)c2ccccc2N1C(=O)c1cccnc1 -1.25%
CC1(C)S[C@@H]2[C@H](NC(=O)[C@H](N)c3ccccc3)C(=O)N2[C@H]1C(=O)O -8.47%
Cc1cc(O)c2/c(=N\N)c(-c3csc(C)n3)coc2c1 -11.3%
O=c1n(CCCN2CCN(c3cccc(Cl)c3)CC2)nc2ccccn12 -1.23%
CC12CCC(C(=O)NNc3ccccc3)(C(=O)C1=O)C2(C)C (stereo unspecified) -4.67%
CC(=O)NCCCC(=O)NC(CCC(=O)OCc1ccccc1)C(=O)OCc1ccccc1 (stereo unspecified) -10.8%
OC12CCCCC1C(c1ccc3c(c1)OCO3)N(Cc1cccc(F)c1)CC2 (stereo unspecified) -0.832%
CC(=O)O[C@H]1CC[C@H]2[C@@H]3CCc4cc(O)ccc4[C@H]3CC[C@]12C 6.46%
CN1[C@@H]2CC(OC(=O)[C@H](CO)c3ccccc3)C[C@H]1[C@@H]1O[C@@H]12 (stereo partly specified) 1.95% and -1.71%
O=C(NCc1ccc(N2CCCC2=O)cc1)c1ccc(F)cc1 -3.3%
O=c1cc(-c2ccc3c(c2)OCCO3)oc2ccc(Cl)cc12 2.35%
NC(=O)c1cnccn1 4.37%
COc1cc(C(=O)Nc2cccc(-c3nnc(-c4ccco4)o3)c2)ccc1OC(C)=O -1.56%
CCNC(=S)Nc1ccc(OC(F)(F)F)cc1 -1.84%
CCCn1c(=O)c2[nH]c(C3CCCC3)nc2n(CCC)c1=O 7.88%
CCOC(=O)n1c(=O)oc2ccccc21 -1.8%
O=C(CCNNC(=O)c1ccncc1)NCc1ccccc1 -0.055%
Cc1nc2ccccn2c(=O)c1CCN1CCC(C(=O)c2ccc(F)cc2)CC1 -13%
Oc1[nH]c2ccccc2c1C1=NCCCC1 -32.8%
COc1ccc(-c2noc(CCc3ccccc3)n2)cc1 -6.01%
C=C(C)[C@@H]1CC=C(CN2CCC(N3CCC(C(=O)N4CCCC4)CC3)CC2)CC1 -15.3%
COc1cc2c(cc1NCc1ccc3c(c1)OCO3)oc1ccccc12 -8.67%
CC(C)C[C@H](NC(=O)[C@@H]1Cc2ccccc2CN1C(=O)OC(C)(C)C)C(=O)NCC1CCC(C(=O)O)CC1 (stereo partly specified) 7.04%
COC(=O)c1ccc(=O)n(Cc2ccco2)c1 -5.57%
O=C(Nc1cccc(Oc2c(F)c(F)c(F)c(F)c2F)c1)N1C[C@@H]2C[C@@H](C1)c1cccc(=O)n1C2 3.99%
Cn1c(=O)[nH]c(=O)c2c1nc(Br)n2CCCO -8.48%
N/C(=N\OC(=O)c1ccc(Br)o1)c1ccccn1 -4.88%
COc1cccc(OC2OC3COC(C)(C)OC3C(O)C2NC(C)=O)c1 (stereo unspecified) 0.119%
Nc1ccc(S(=O)(=O)NC(=O)c2ccccc2)cc1 5.18%
C=C(CC)C(=O)c1ccc(OCC(=O)O)c(Cl)c1Cl -11.1%
CCC(C)NCCOc1ccc(C(C)(C)c2ccccc2)cc1 (stereo unspecified) 32%
O=C(NCCc1ccccc1)C1CCN(C2CCN(Cc3ccco3)CC2)CC1 -15.9%
COC(=O)c1ccccc1NC(=O)NCc1ccccc1 -1.68%
CCCCN1C[C@H](O)[C@@H](O)[C@H](O)[C@H]1CO 9.71%
c1ccc2c(c1)CCCC2C1=NCCN1 (stereo unspecified) -4.07%
C/C=C/Cn1c(SC)nc2c1c(=O)[nH]c(=O)n2C 0.316%
CC(C)C(=O)Nc1cccnc1 -3.83%
Clc1ccc(CCNc2ncnc3nc[nH]c23)cc1 1.95%
CCOc1ccc(C(=O)C(C)=O)c(OCC)c1 -0.868%
COc1ccc(CN(CCC(c2ccc(F)cc2)C2CCOC(C)(C)C2)C(=O)c2ccco2)cc1 (stereo unspecified) 25.2%

By substructure: those above containing a thiophene ring, fused or not.
inhibition, inactive:
COC(=O)C1[C@H]2C(=O)N(Cc3cccs3)C[C@]23C=C[C@H]1O3 (stereo partly specified) 4.54%
C/C(NC(=O)c1cccs1)=C1\C(=O)C[C@@H]2[C@H]1C2(C)C 1.79%
COc1ccc(-c2[nH]ncc2CN(CCO)Cc2cccs2)c(F)c1 -3.67%

Fetched by structure from above (two):
inhibition, inactive:
CN(C)CCOc1ccc(Cl)cc1C(C)(C)C 7.97%
C[C@@H]1C[C@H](Nc2ccccc2)c2ccccc2N1C(=O)c1cccnc1 -1.25%
